Reference: patent publication US20040242871A1, “Novel arylheteroalkylamine derivatives” (priority 2001, published 2004)
Counter-ions that a name gives are not always drawn. Some results were stated once for a whole list of compounds, not compound by compound.

Key:
[1] = target: T1, Nitric oxide synthase from induced murine macrophage cell line J774A-1 (Mus musculus, UniProt P29477); assay: Screen 1: nitric oxide synthase inhibition, conversion of 3H-L-arginine into 3H-L-citrulline, lysate of induced J774A-1 cells; format: biochemical; conditions: J774A-1 cell lysate (LPS/IFNg induced), 1 hour at room temperature; read-out: IC50 (concentration of drug substance which gives 50% enzyme inhibition in the assay)
T1 construct: The reaction is started by adding 50 μl of cell lysate (prepared as above); endogenous in cells; host or cells: J774A-1 murine macrophage cell line, induced with LPS and IFN-gamma; crude cell lysate
Experimental: The activity of compounds of formula (I), or a pharmaceutically acceptable salt, enantiomer or racemate thereof, may be screened for nitric oxide synthase inhibiting activity by a procedure based on that of Förstermann et al., Eur. J. Pharm., 1992, 225, 161-165. Nitric oxide synthase converts ^3H-L-arginine into ^3H-L-citrulline which can be separated by cation exchange chromatography and quantified by liquid scintillation counting.
Enzyme is prepared, after induction, from the cultured murine macrophage cell line J774A-1 (obtained from the laboratories of the Imperial Cancer Research Fund). J774A-1 cells are cultured in Dulbeccos Modified Eagles Medium (DMEM) supplemented with 10% foetal bovine serum, 4 mM L-glutamine and antibiotics (100 units/ml penicillin G, […] streptomycin & […] amphotericin B). Cells are routinely grown in […] flasks containing 35 ml medium kept at 37° C. and in a humidified atmosphere containing 5% CO2.
Nitric oxide synthase is produced by cells in response to interferon-g (IFNg) and lipopolysaccharide (LPS). The medium from confluent culture flasks is removed and replaced with 25 ml (per flask) of fresh medium containing 1 mg/ml LPS and 10 units/ml IFNg. After a period of 17-20 hours in culture, harvesting of cells is accomplished by scraping the cell sheet from the flask surface into the culture medium. Cells are collected by centrifugation (1000 g for 10 minutes) and lysate prepared by adding to the cell pellet a solution containing 50 mM Tris-HCl (pH 7.5 at 20° C.), 10% (v/v) glycerol, 0.1% (v/v) Triton-X-100, 0.1 mM dithiothreitol and a cocktail of protease inhibitors comprising leupeptin (2 mg/ml), soya bean trypsin inhibitor (10 mg/ml), aprotinin (5 mg/ml) and phenylmethylsulphonyl fluoride (50 mg/ml).
For the assay, 25 μl of substrate cocktail (50 mM Tris-HCl (pH 7.5 at 20° C.), 400 μM NADPH, 20 μM flavin adenine dinucleotide, 20 μM flavin mononucleotide, 4 μM tetrahydrobiopterin, 12 μM L-arginine and 0.025 mCi L-[^3H] arginine) is added to wells of a 96 well filter plate (0.45 μM pore size) containing 25 μl of a solution of test compound in 50 mM Tris-HCl. The reaction is started by adding 50 μl of cell lysate (prepared as above) and after incubation for 1 hour at room temperature is terminated by addition of 50 μl of an aqueous solution of 3 mM nitroarginine and 21 mM EDTA.
Labelled L-citrulline is separated from labelled L-arginine using Dowex AG-SOW. 150 μl of a 25% aqueous slurry of Dowex SOW (Na^+ form) is added to the assay after which the whole is filtered into 96 well plates. 75 μl of filtrate is sampled and added to wells of 96 well plates containing solid scintillant. After allowing the samples to dry the L-citrulline is quantified by scintillation counting.
In a typical experiment basal activity is 300 dpm per 75 μl sample which is increased to 1900 dpm in the reagent controls. Compound activity is expressed as IC50 (the concentration of drug substance which gives 50% enzyme inhibition in the assay) and aminoguanidie, which gives an IC50 (50% inhibitory concentration) of 10 μM, is tested as a standard to verify the procedure. Compounds are tested at a range of concentrations and from the inhibitions obtained IC50 values are calculated. Compounds that inhibit the enzyme by at least 25% at 100 μM are classed as being active and are subjected to at least one retest.

Recombinant human iNOS = target: T2, Recombinant human iNOS (Homo sapiens, UniProt P35228); assay: Screen 2: recombinant human NO synthase inhibition, L-[3H]citrulline formation from L-[3H]arginine; format: biochemical; conditions: recombinant human iNOS expressed in E. coli, 60 min pre-incubation with NADPH, 3 μM [3H]arginine; read-out: IC50 against the iNOS enzyme
T2 construct: made in house; host or cells: E. coli (lysates in Hepes buffer with co-factors, lysozyme, CHAPS)

[2] = target: T3, human form of induced nitric oxide synthase in DLD-1 cells (Homo sapiens, UniProt P35228); assay: Screen 3: nitrite accumulation (Griess) in cytokine-induced DLD-1 cells; format: cell-based; conditions: DLD-1 cells induced with gamma-IFN, TNF-alpha, IL-6, IL-1-beta; 5 hours with compound; read-out: IC50 (inhibition of nitrite accumulation)
T3 construct: Nitric oxide synthase was induced in cells by addition of medium containing human recombinant gamma-IFN; endogenous in cells; host or cells: DLD-1 human colorectal carcinoma cells (ECACC 90102540), induced with gamma-IFN, TNF-alpha, IL-6 and IL-1-beta

SMILES	IC50 [1] [µM]	IC50 (Recombinant human iNOS) [µM]	IC50 [2] [µM]
COc1cc(S[C@H](C[C@H](N)CO)c2ccccc2)c(C#N)cn1 [Example 10, 4-[[(1R,3S)-3-Amino-4-hydroxy-1-phenylbutyl-]thio]-6-methoxy-3-pyridinecarbonitrile (E)-butenedioate]	< 10	< 10	< 100
Cc1cc(S[C@H](C[C@H](N)CO)c2ccccc2)c(C#N)cn1 [Example 3, 4-[[(1R,3S)-3-Amino-4-hydroxy-1-phenylbutyl]thio]-6-methyl-3-pyridinecarbonitrile ethanedioate]	< 10	< 10	< 100
N#Cc1ccc(C(F)F)nc1S[C@H](C[C@H](N)CO)c1ccccc1 [Example 5, 2-[[(1R,3S)-3-Amino-4-hydroxy-1-phenylbutyl]thio]-6-(difluoromethyl)-3-pyridinecarbonitrile (E)-butenedioate]	< 10	< 10	< 100
N#Cc1cc(F)c(Cl)cc1O[C@H](C[C@H](N)CO)c1ccns1 [Example 9, 2-[[(1R,3S)-3-Amino-4-hydroxy-1-(5-isothiazolyl)butyl]oxy]-4-chloro-5-fluorobenzonitrile Hydrochloride]	< 10	< 10	< 100
Cc1ccc(C#N)c(S[C@H](C[C@H](N)CO)c2ccccc2)n1 [Example 1, 2-[[(1R,3S)-3-Amino-4-hydroxy-1-phenylbutyl]thio]-6-methyl-3-pyridinecarbonitrile ethanedioate]	< 10	< 10	< 100
N#Cc1cc(F)c(Cl)cc1O[C@H](C[C@H](N)CO)c1nccs1 [Example 8, 2-[[(1R,3S)-3-Amino-4-hydroxy-1-(2-thiazolyl)butyl]oxy]-4-chloro-5-fluorobenzonitrile ethanedioate]	< 10	< 10	< 100
N#Cc1ccc(CF)nc1S[C@H](C[C@H](N)CO)c1ccccc1 [Example 6, 2-[[(1R,3S)-3-Amino-4-hydroxy-1-phenylbutyl]thio]-6-(fluoromethyl)-3-pyridinecarbonitrile (E)-butenedioate]	< 10	< 10	< 100
N#Cc1ncc(C(F)(F)F)cc1S[C@H](C[C@H](N)CO)c1ccccc1 [Example 4, 3-[[(1R,3S)-3-Amino-4-hydroxy-1-phenylbutyl]thio]-5-(trifluoromethyl)-2-pyridinecarbonitrile ethanedioate]	< 10	–	–
N#Cc1cc(F)c(Cl)cc1O[C@H](C[C@H](N)CO)c1cccnc1 [Example 7, 2-[[(1R,3S)-3-Amino-4-hydroxy-1-(3-pydridinyl)butyl]oxy]-4-chloro-5-fluorobenzonitrile Dihydrochloride]	< 10	< 10	< 100
Cc1ccc(C#N)c(SC(C[C@H](N)CO)c2ccon2)n1 (mixture of isomers) [Example 2, 2-[[(3S)-3-Amino-4-hydroxy-1-(3-isoxazolyl)butyl]thio]-6-methyl-3-pyridinecarbonitrile ethanedioate]	< 10	< 10	< 100
